Source: PMC4070987
These are yes or no findings as the source states them, for the method shown. Some results given as binding are weak or reduced against the parent protein; the word gives no strength. Where a sequence is shown, tags or fusion partners need not be part of it.

Amino acid sequences for entries named in this document (tags omitted). Residues count along the entry.
UniProt P23694, residues 17-487: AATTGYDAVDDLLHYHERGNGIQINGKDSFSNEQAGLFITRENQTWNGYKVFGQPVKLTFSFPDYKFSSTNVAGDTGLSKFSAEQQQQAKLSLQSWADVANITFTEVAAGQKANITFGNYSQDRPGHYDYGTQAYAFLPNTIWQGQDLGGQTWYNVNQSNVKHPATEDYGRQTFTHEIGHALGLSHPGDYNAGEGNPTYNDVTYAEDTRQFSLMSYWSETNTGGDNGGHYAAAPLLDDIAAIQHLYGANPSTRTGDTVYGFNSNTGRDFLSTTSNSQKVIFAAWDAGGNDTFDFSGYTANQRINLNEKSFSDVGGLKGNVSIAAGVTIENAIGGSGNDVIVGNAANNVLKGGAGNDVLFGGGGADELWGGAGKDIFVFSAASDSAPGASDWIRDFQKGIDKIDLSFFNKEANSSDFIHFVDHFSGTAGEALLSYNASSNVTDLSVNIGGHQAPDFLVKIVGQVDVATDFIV

Target: Serralysin from Serratia marcescens (SmP) (Serratia marcescens) (UniProt P23694)
Assay: SEC; analytical gel filtration, TOSOH QC-PAK GFC 200 column on HPLC, refolding buffer (50 mM Tris, 150 mM NaCl, 2 mM CaCl2); inhibitor mixed in equimolar ratio with refolded protease; UV absorbance at 220 and 280 nm; both purified

B1: aprI inhibitor (AP Inh), alkaline protease inhibitor from Pseudomonas aeruginosa, Smt3 tag removed (protein, UniProt Q03026 27-131)
chain: SLILLSASDLAGQWTLQQDEAPAICHLELRDSEVAEASGYDLGGDTACLTRWLPSEPRAWRPTPAGIALLERGGLTLMLLGRQGEGDYRVQKGDGGQLVLRRATP
binding: binds
